Test results published in US9217032B2, “Methods for treating colorectal cancer” (LES LABORATOIRES SERVIER, priority 2010, dated 2015).

System: hPG
Assay: Epitope mapping by SPOT technique and alanine scanning
Format: binding, human
Settings: for epitope within PG peptide antigen SWKPRSQQPDAPLG: N-terminal anti-hPG monoclonal antibodies, epitopes comprise at least this sequence

| Molecule | region of hPG recognized (N- or C-terminal epitope) | epitope within PG peptide antigen SWKPRSQQPDAPLG |
| --- | --- | --- |
| MAb8: murine C-terminal anti-hPG monoclonal antibody, hybridoma 1C10D3B9, VH SEQ ID NO:59, VL SEQ ID NO:63 (antibody, V domains shown) VH: EVQLVESGGGLVKPGGSLKLSCAASGFTFTTYAMSWVRQTPEKRLEWVATISSGGTYTYYPDSVKGRFTISRDNAKNALYLQMSSLRSEDTAMYYCATQGNYSLDFWGQGTSLTVSS VL: DIVMTQAASSNPVTLGTSASISCRSSKSLRHTKGITFLYWYLQKPGQSPQLLIYQMSNLASGVPDRFSSSGSGTDFTLRISRVEAEDLGVYYCAQNLELPLTFGAGTKLELK | C-terminal epitopes of hPG |  |
| MAb4: murine N-terminal anti-hPG monoclonal antibody, hybridoma 20D2C3G2, VH SEQ ID NO:14, VL SEQ ID NO:15 (antibody, V domains shown) VH: QVQLQQSGAELMKPGASVKISCKATGYTFSSSWIEWLKQRPGHGLEWIGEFLPGSGSTDYNEKFKGKATFTADTSSDTAYMLLSSLTSEDSAVYYCATDGNYDWFAYWGQGTLVTVSA VL: DLVMTQTPLSLPVSLGDQASISCRSSQSLVHSSGVTYLHWYLQKPGQSPKLLIYKVSNRFSGVPDRFSGSGSGTDFTLKISRVEAEDLGVYFCSQSTHVPPTFGSGTKLEIK |  | WKPRSQQPDAPLG |
| MAb19: murine N-terminal anti-hPG monoclonal antibody, hybridoma 1B3B4F11, VH SEQ ID NO:62, VL SEQ ID NO:66 (antibody, V domains shown) VH: DVQLQESGPGLVKPSQSLSLTCTVTGYSITSDYAWNWIRQFPGNKLEWMGYISFSGYTSYNPSLKSRISVTRDTSRNQFFLQLTSVTTEDTATYYCAREVNYGDSYHFDYWGQGTIVTVSS VL: QLALTQSSSASFSLGASAKLTCTLSSQHRTYTIEWYQQQSLKPPKYVMEVKKDGSHSTGHGIPDRFSGSSSGADRYLSISNIQPEDEAIYICGVGDAIKGQSVFVFGGGTKVTVL |  | WKPRSQQPD |
| MAb3: murine N-terminal anti-hPG monoclonal antibody, hybridoma 6B5B11C10, VH SEQ ID NO:12, VL SEQ ID NO:13 (antibody, V domains shown) VH: EVQLQQSGTVLARPGASVKMSCKASGYIFTSYWVHWVKQRPGQGLEWIGGFYPGNSDSRYNQKFKGKATLTAVTSASTAYMDLSSLTNEDSAVYFCTRRDSPQYWGQGTTLTVSS VL: DVLMTQTPLSLPVSLGDQASISCRSSQSIVHSNGNTYLEWYLQKPGQSPKLLIYKVSNRFSGVPDRFSGSGSGTDFTLKISRLEAEDLGVYYCFQGSHVPFTFGGGTKLEIK |  | DAPLG |
